Measurements from paper PMC3510498.
Results are given in words; binding and its absence hold for the method and conditions named.

Target: Thermoanaerobacter tengcongensis RecO (Thermoanaerobacter tengcongensis MB4) (UniProt Q8RB48)
Experiment: SEC + AUC; SEC: Superdex-200, 0.5 ml/min, 50 mM Tris-HCl pH 7.5, 300 mM NaCl, 200 µg/ml; AUC: 20°C, 1 mg/ml in 5 mM Tris-HCl pH 7.5, 50 mM NaCl, 60 000 rpm (TTERecR, TTERecO) or 55 000 rpm (TTERecOR complex), SEDFIT; both purified

binding: no binding
Substance: Thermoanaerobacter tengcongensis RecO (from UniProt Q8RB48 1-247)
